In US11464749B2, “Bismuth-thiol compositions and methods of use” (Microbion Corporation, priority 2018, dated 2022):

Tested on: fully differentiated human airway epithelium (MUCILAIR™)
Assay: Acute toxicity on […] (LDH release, TEER, morphology)
Assay type: cell-based
Procedure: Controlled in vitro evaluation of BisEDT, with respect to potential cytotoxicity on fully differentiated human airway epithelium was carried out. Both solubilized and solid (powder/particulate) forms of BisEDT were evaluated for cytotoxicity by Epithelix, a contract research organization (CRO) specializing in this form of cytotoxicity evaluation utilizing a proprietary, in vitro fully differentiated human airway epithelium test system ([…]™) The […]™ system facilitated evaluation of cytotoxicity through both LDH release (from the culture medium side) and trans-epithelial electrical resistance (TEER) from the apical/air-exposed side as well as pre- and post-exposure microscopic examination for morphological changes (FIG. 13).
The assay system used in this study is Epithelix's proprietary technology […]™ […]™ is a fully differentiated and ready-to-use 3D model of human airway epithelium, constituted with primary human epithelial cells freshly isolated from nasal, tracheal or bronchial biopsies. […]™ (FIG. 24), is not only morphologically and functionally differentiated, but can also be maintained in a homeostatic state for a long period of time (Huang et al., 2009).
[…]™ is composed of basal cells, ciliated cells and mucus cells. […] A large panel of cytokines, chemokines and metalloproteinases has been detected in […]™ (e.g. IL-8, IL-6, GM-CSF, MMP-9, GRO-α). […]
During the study, inserts were maintained in a CO2 incubator (37° C., 5% CO2, 100% humidity). The following end-points were determined: • Tissue integrity monitoring: Trans-Epithelial Electrical Resistance (TEER) measurement (quantitative) at D0, D1 and D2. • Cytotoxicity monitoring: LDH test (quantitative) at D0, D1 and D2. • Morphology: cellular and tissue integrity examined under contrast microscope at D0, D1 and D2.
Three days before the experiment, the following quality controls were performed on each epithelium: • Washing: inserts were washed with 200 μl of […]™ culture medium. […] The presence of mucus was detected by the refractive aspect of the apical surface. […]

In the case of C1C[S][Bi]([S]CC[S][Bi]2[S]CC[S]2)[S]1 [BisEDT, bismuth-1,2-ethanedithiol], the “highest non-toxic concentrations relative to MIC” value (particulate or solubilized BisEDT) was 25-345 fold, the “highest tested concentration (20.83 μg/mL) relative to MIC for M. avium” value (solubilized BisEDT) was 2.5-10 fold and the “highest tested concentration (20.83 ug/mL) relative to MICs against most tested CF bacterial isolates” value (solubilized BisEDT) was 20-347 fold.
